Experimental findings from PMC7862700 are described below.

Amino acid sequences for entries named in this document (tags omitted). A change or cut given only in a name is not applied to a line headed by its entry.
UniProt Q01892: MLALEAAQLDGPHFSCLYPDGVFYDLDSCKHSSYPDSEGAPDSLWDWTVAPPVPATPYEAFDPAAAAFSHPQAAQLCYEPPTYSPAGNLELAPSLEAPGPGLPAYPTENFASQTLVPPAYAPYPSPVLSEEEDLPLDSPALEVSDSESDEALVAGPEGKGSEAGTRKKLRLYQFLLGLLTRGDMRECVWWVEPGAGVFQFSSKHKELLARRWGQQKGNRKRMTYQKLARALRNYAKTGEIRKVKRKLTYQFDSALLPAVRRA
UniProt P41161: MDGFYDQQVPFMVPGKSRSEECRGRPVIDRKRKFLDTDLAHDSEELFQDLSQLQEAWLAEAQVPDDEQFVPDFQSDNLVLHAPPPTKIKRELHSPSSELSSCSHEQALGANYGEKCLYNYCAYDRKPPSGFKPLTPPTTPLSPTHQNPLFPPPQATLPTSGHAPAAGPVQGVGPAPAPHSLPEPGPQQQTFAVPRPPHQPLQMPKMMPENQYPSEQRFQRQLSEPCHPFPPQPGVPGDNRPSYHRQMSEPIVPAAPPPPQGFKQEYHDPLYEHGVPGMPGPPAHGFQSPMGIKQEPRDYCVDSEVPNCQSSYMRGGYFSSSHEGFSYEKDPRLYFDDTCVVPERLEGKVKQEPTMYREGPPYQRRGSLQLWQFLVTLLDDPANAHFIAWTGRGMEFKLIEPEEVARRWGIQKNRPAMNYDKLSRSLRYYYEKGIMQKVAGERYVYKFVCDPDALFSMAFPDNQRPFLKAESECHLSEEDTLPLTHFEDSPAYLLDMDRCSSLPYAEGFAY
UniProt Q99607: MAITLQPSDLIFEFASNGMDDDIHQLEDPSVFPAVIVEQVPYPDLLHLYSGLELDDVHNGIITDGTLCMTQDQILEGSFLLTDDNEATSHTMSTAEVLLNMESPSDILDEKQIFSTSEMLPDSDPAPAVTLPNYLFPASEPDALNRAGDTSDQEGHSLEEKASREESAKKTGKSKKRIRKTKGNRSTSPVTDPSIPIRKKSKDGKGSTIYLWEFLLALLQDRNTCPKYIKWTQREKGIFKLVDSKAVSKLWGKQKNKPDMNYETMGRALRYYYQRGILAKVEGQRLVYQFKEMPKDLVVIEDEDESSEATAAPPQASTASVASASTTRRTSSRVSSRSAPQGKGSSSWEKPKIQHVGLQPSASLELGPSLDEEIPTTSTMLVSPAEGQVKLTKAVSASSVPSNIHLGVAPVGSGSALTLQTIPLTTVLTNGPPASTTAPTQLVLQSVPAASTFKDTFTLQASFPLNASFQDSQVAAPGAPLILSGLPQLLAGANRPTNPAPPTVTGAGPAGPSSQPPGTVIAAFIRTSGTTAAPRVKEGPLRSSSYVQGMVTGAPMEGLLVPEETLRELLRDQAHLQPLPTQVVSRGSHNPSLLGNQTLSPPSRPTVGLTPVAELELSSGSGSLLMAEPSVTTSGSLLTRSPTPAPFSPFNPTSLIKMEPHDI

The list shows a part of the results, in another mix than the full data. At the low end of the ranking the order means little.

Some targets named below: SPIB (UniProt Q01892); ETV5 (UniProt P41161); ELF4 (UniProt Q99607).
Test in all cases: DAPPL (digital affinity profiling via proximity ligation, sequencing)
Conditions in all cases: 10 mM Tris-HCl pH 7.5, 50 mM NaCl, 1 mM DTT, 4% glycerol, room temperature, 30 min; GST-TFs on glutathione beads, 16-mer random dsDNA library, 0.1% …; high values mean tight binding; double strand, one strand shown; scale: fold enrichment (6-mer frequency, TF over GST control)

In the next experiment the target is T1, FLI1 (UniProt Q01543).
T1 sequence: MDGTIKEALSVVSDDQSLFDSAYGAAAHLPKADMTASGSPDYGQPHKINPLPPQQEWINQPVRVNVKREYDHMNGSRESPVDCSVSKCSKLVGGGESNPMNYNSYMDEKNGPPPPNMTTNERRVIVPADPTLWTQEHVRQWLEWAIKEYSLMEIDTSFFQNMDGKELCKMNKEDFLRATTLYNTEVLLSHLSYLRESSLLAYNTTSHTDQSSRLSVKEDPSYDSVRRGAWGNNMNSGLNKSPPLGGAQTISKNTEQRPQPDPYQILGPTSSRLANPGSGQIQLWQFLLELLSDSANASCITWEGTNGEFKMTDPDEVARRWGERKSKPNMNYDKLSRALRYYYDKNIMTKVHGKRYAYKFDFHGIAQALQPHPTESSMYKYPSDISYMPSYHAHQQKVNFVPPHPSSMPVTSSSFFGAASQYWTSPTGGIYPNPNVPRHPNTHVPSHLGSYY

The next experiment addresses T2, EHF (UniProt Q9NZC4).
T2 sequence: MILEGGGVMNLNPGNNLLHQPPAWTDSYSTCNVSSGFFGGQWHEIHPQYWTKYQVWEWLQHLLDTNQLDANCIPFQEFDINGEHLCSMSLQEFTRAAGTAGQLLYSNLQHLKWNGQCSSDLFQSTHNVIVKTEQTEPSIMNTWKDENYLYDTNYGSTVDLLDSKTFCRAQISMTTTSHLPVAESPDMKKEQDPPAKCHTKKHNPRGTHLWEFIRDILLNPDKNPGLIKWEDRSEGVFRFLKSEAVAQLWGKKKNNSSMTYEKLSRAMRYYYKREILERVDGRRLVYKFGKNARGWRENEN

The target in a further experiment is T3, ETV2 (UniProt O00321).
T3 sequence: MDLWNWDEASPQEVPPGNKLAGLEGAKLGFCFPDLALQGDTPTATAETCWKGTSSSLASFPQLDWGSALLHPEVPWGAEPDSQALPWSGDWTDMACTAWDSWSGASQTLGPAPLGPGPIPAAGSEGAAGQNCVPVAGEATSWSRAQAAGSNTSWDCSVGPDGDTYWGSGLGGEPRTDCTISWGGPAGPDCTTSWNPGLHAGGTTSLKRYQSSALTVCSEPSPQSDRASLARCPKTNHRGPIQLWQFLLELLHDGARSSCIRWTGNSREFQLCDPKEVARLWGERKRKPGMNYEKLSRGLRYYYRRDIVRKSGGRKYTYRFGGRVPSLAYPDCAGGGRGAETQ

The target in another experiment is T4, ETV3L (UniProt Q6ZN32).
T4 sequence: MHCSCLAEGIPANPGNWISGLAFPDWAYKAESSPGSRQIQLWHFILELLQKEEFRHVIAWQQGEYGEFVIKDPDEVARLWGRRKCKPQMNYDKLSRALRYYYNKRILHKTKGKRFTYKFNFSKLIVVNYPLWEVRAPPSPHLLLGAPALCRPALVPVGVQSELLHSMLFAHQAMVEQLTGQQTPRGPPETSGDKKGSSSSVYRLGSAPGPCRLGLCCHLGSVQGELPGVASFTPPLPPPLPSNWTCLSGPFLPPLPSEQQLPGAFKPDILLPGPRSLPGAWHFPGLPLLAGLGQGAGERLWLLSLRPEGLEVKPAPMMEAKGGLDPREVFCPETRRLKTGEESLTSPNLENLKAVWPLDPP

As to TAAGAC, the binding signal with FLI1 is 0.882; in the experiment with EHF it was 0.817; in the experiment with SPIB it was 0.844; with ETV5, 0.923; in the experiment with ELF4, 0.919; with ETV2, 0.93. The sequence further gave a binding signal with ETV3L of 0.823.
As for CAGAAG, the binding signal in the experiment with FLI1 worked out at 0.688; with EHF, 0.843; with SPIB, 0.709; with ETV5, 0.737; with ELF4 it was 0.757; with ETV2, 0.763. Also, the binding signal with ETV3L amounted to 0.719.
As to GTGGTC, the binding signal with FLI1 is 0.874; in the experiment with EHF, 0.92; with SPIB, 0.946; with ETV5, 0.868; with ELF4, 0.874; in the experiment with ETV2, 0.724. This sequence also showed a binding signal in the experiment with ETV3L of 0.859.
For the sequence GGTTGT, the binding signal turned out to be 0.967 in the experiment with FLI1; 0.959 with EHF; 0.911 in the experiment with SPIB; 0.919 with ETV5; 0.863 in the experiment with ELF4; 0.969 with ETV2. For the same sequence, the binding signal with ETV3L was 0.904.
For the sequence GCCAGA, the binding signal with FLI1 is 0.684; with EHF it was 0.717; with SPIB, 0.663; in the experiment with ETV5, 0.693; with ELF4, 0.682; with ETV2, 0.743. This sequence returned a binding signal with ETV3L of 0.614.
With TCAAGA, the binding signal in the experiment with FLI1 came out at 0.878; in the experiment with EHF, 0.885; with SPIB, 0.884; with ETV5, 0.841; in the experiment with ELF4, 0.895; in the experiment with ETV2, 0.81. For the same sequence, the binding signal with ETV3L stood at 0.902.
Consider TACGAG, for which the binding signal with FLI1 is 0.9; in the experiment with EHF, 0.896; in the experiment with SPIB, 0.891; in the experiment with ETV5, 0.917; in the experiment with ELF4, 0.958; in the experiment with ETV2, 0.854. The sequence further showed a binding signal with ETV3L of 0.909.
As for AAGGGA, the binding signal came to 0.896 with FLI1; 0.927 in the experiment with EHF; 0.878 with SPIB; 0.887 in the experiment with ETV5; 0.866 with ELF4; 0.836 with ETV2. Also, the binding signal with ETV3L was determined as 0.845.
Turning to AGACTC, the binding signal with FLI1 was determined as 0.955; with EHF, 0.841; with SPIB, 0.926; in the experiment with ETV5, 0.899; with ELF4, 0.934; with ETV2, 0.992. This sequence had a binding signal in the experiment with ETV3L of 0.929.
Consider GTAGAA, for which the binding signal with FLI1 amounted to 0.955; in the experiment with EHF, 0.902; with SPIB, 0.873; in the experiment with ETV5 it was 0.879; with ELF4, 0.936; with ETV2, 0.898. Moreover, in the experiment with ETV3L, the binding signal stood at 0.893.
For GATCGA, the binding signal is 0.806 in the experiment with FLI1; 0.81 with EHF; 0.81 in the experiment with SPIB; 0.848 with ETV5; 0.861 with ELF4; 0.77 in the experiment with ETV2. The binding signal with ETV3L worked out at 0.837.
As to GATAGT, the binding signal turned out to be 0.813 with FLI1; 0.763 with EHF; 0.806 with SPIB; 0.839 with ETV5; 0.811 with ELF4; 0.868 with ETV2. In the experiment with ETV3L, this sequence showed a binding signal of 0.849.
As for ATAGTG, the binding signal came out at 0.927 with FLI1; 0.89 with EHF; 0.984 in the experiment with SPIB; 0.916 with ETV5; 0.865 with ELF4; 0.803 with ETV2. The binding signal with ETV3L was determined as 0.924.
For AGAGAA, the binding signal with FLI1 came to 0.81; with EHF it was 0.833; in the experiment with SPIB, 0.738; with ETV5, 0.839; in the experiment with ELF4 it was 0.846; with ETV2 it was 0.853. In the experiment with ETV3L, this sequence showed a binding signal of 0.827.
GATCAC: the binding signal is 0.884 with FLI1; 0.916 with EHF; 0.887 in the experiment with SPIB; 0.928 with ETV5; 0.987 in the experiment with ELF4; 0.982 with ETV2. Moreover, the binding signal with ETV3L was 0.985.
With AGCAGA, the binding signal in the experiment with FLI1 was determined as 0.871; with EHF, 0.963; with SPIB, 0.901; with ETV5, 0.934; with ELF4, 0.925; in the experiment with ETV2, 0.971. Moreover, in the experiment with ETV3L, the binding signal is 0.91.
For the sequence CGCTGT, the binding signal in the experiment with FLI1 was 0.971; in the experiment with EHF, 0.923; in the experiment with SPIB it was 0.917; with ETV5, 0.956; with ELF4, 0.893; with ETV2, 1.01. Moreover, the binding signal with ETV3L came to 0.956.
For TCGAGA, the binding signal worked out at 0.561 with FLI1; 0.608 with EHF; 0.652 with SPIB; 0.635 with ETV5; 0.67 in the experiment with ELF4; 0.644 with ETV2. The sequence also showed a binding signal in the experiment with ETV3L of 0.586.
With AGAACT, the binding signal amounted to 0.915 with FLI1; 0.919 with EHF; 0.942 in the experiment with SPIB; 0.88 in the experiment with ETV5; 0.942 in the experiment with ELF4; 0.812 with ETV2. Moreover, the binding signal in the experiment with ETV3L worked out at 0.94.
On to CACTGA, for which the binding signal in the experiment with FLI1 was determined as 0.929; in the experiment with EHF it was 0.871; in the experiment with SPIB, 0.886; in the experiment with ETV5, 0.885; with ELF4, 0.958; with ETV2, 0.96. In the experiment with ETV3L, the binding signal turned out to be 0.936.
